Among the data in publication doi:10.1101/2025.03.24.645131 are binding values, retold here.

The chains behind the UniProt entries cited, without tags or fusion partners. Where a name states a change or a piece, a line headed by the entry shows the natural chain unless it says otherwise.
UniProt P49407: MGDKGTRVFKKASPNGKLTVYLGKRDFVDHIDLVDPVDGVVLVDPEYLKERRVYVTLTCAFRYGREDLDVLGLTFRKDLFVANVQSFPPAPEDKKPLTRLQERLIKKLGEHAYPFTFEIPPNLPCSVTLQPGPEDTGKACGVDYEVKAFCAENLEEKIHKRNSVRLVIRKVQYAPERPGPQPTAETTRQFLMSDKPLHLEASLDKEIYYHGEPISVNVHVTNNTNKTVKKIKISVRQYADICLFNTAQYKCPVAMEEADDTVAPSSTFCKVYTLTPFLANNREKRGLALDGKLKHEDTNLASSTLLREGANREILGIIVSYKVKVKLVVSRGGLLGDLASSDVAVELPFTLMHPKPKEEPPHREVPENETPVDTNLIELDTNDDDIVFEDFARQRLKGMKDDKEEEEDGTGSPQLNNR

Results are given in words; binding and its absence hold for the method and conditions named. Binding seen in cells or lysates may run through a third protein. Some results given as binding are weak or reduced against the parent protein; the word gives no strength.

The target in the experiment is T1, GPR119-LgBiT (UniProt Q8TDV5).
T1 sequence: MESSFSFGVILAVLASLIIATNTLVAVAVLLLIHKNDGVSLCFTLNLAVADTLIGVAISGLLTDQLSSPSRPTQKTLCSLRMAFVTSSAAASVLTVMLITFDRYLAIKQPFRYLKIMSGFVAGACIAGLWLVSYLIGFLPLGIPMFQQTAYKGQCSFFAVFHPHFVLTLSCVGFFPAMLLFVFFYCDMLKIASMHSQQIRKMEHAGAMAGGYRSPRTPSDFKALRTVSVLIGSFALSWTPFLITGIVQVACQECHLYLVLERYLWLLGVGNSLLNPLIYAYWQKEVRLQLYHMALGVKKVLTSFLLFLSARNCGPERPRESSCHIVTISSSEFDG
Nature of the experiment: split reporter.

Regarding SmBiT-βarr1 (from UniProt P49407 1-418), the binding result was “binds”.

“SmBiT-βarr1_D194A/K195A (from UniProt P49407 1-418)”: the binding result is reported as “binds”.
